In patent US20190314260A1, “ENGINEERED TREATMENTS FOR HAIR REPAIR AND LONG-LASTING COLOR RETENTION” (Massachusetts Institute of Technology, priority 2018, published 2019):
For part of these data: The name of at least one read-out is uncertain. Some results were stated once for a whole list of compounds, not compound by compound.

Experiments:
[1] = thermal stability (weight as a function of increasing temperature); format: physicochemical; conditions: weight measured as a function of increasing temperature
[2] = solubility test in oil-based solvents; format: physicochemical; conditions: 2.5 mg protein/10 mL solvent
Protocol: Solubility tests were performed by adding keratin-binding protein to 7 different solvents at concentrations of 2.5 mg protein/10 mL solvent. […] KBP was soluble in polysorbate 40 (Tween® 40) and Solubilisant CLR, with only a few visible particles present in solution.

Molecule | thermal stability (temperature at which stable) [1] | solubility in Solubilizer 611671 [2]
KBPY: keratin-binding protein with tyrosine residues, SEQ ID NO: 2: MAKT-6His-three keratin-binding domain repeats-YYYYC (protein) MAKTHHHHHHQGQVQHLQAAFSQYKKVELFPKGGQGQVQHLQAAFSQYKKVELFPKGGQGQVQHLQAAFSQYKKVELFPKGGYYYYC | above 100 °C | 
KBP: engineered keratin-binding protein without tyrosine residues; keratin-binding domain SEQ ID NO: 1 repeated three times, expressed in E. coli (protein) MAKTHHHHHHQGQVQHLQAAFSQYKKVELFPKGGQGQVQHLQAAFSQYKKVELFPKGGQGQVQHLQAAFSQYKKVELFPKGGYYYYC | above 100 °C | not soluble
